The list shows only some results of the screen, not a fair sample: it gathers tests that were run many times, whatever their T/C, doses with no T/C, and many T/C values between a quarter and a half above the control. Further doses and runs are listed elsewhere. T/C gives the treated animals as a percentage of the vehicle group. For survival time, this PubChem deposit counts one and a half times the control or more as active, and values a quarter to a half above the control carry no call in these data; other NCI protocols may use other cut-offs. Schedules are NCI's codes, read here as Q, the interval in days (D) or hours (H), X, the number of doses. Some entries hold several experiments; the values are given in rising order. Some schedules carry Z or #; the key to these is not given. Some T/C values carry the count of animals alive at the toxicity check (mostly the fifth day); without a count, all were alive then.
Tested on: L1210 leukemia ip in BDF1 mice, survival T/C
Experiment: NCI In Vivo Anticancer Drug Screen. Data for tumor model L1210 Leukemia (intraperitoneal) in B6D2F1 (BDF1) mice
Conditions: T/C endpoint: mean survival time, higher T/C = longer survival

O=c1[nH]c(=O)n(C2CC(O)C(CO)O2)cc1C(F)(F)F (configuration not stated)
T/C (dose: 1.33 mg/kg/injection, schedule: Q#B X045 (ip), vehicle: saline): 127 % of control
T/C (dose: 2.0 mg/kg/injection, schedule: Q#B X Z (ip), vehicle: saline): 142 % of control
T/C (dose: 4.5 mg/kg/injection, schedule: Q01DX Z (ip), vehicle: saline): 135 % of control
T/C (dose: 6.25 mg/kg/injection, schedule: Q01DX Z (im), vehicle: saline): 126 % of control
T/C (dose: 8.0 mg/kg/injection, schedule: Q01DX009 (ip), vehicle: saline): 125 % of control
T/C (dose: 8.0 mg/kg/injection, schedule: Q03HX024 (ip), vehicle: water): 136 % of control
T/C (dose: 12.0 mg/kg/injection, schedule: Q01DX Z (sc), vehicle: saline): 127 % of control
T/C (dose: 12.5 mg/kg/injection, schedule: Q01DX015 (ip), vehicle: saline): 133 % of control
T/C (dose: 12.5 mg/kg/injection, schedule: Q01DX Z (im), vehicle: saline): 136 % of control
T/C (dose: 16.0 mg/kg/injection, schedule: Q01DX009 (ip), vehicle: saline): 137 % of control
T/C (dose: 16.0 mg/kg/injection, schedule: Q01DX009 (ip), vehicle: water): 127 % of control
T/C (dose: 16.0 mg/kg/injection, schedule: Q03HX024 (ip), vehicle: water): 138 % of control
T/C (dose: 25.0 mg/kg/injection, schedule: Q01DX006 (iv), vehicle: saline): 127 % of control
T/C (dose: 25.0 mg/kg/injection, schedule: Q01DX Z (im), vehicle: saline): 130 % of control
T/C (dose: 32.0 mg/kg/injection, schedule: Q01DX009 (ip), vehicle: saline): 147 % of control
T/C (dose: 32.0 mg/kg/injection, schedule: Q01DX009 (ip), vehicle: water): 147 % of control
T/C (dose: 32.0 mg/kg/injection, schedule: Q01DX009 (oral), vehicle: saline): 129 % of control
T/C (dose: 37.5 mg/kg/injection, schedule: Q01DX017 (ip), vehicle: water): 130 % of control
T/C (dose: 37.5 mg/kg/injection, schedule: Q01DX Z (ip), vehicle: water): 142 % of control
T/C (dose: 37.5 mg/kg/injection, schedule: Q#A X034 (ip), vehicle: water): 136 % of control
T/C (dose: 38.5 mg/kg/injection, schedule: Q01DX Z (ip), vehicle: water): 140 % of control
T/C (dose: 39.0 mg/kg/injection, schedule: Q01DX Z (ip), vehicle: water): 137 % of control
T/C (dose: 40.0 mg/kg/injection, schedule: Q01DX Z (ip), vehicle: saline): 148 % of control
T/C (dose: 50.0 mg/kg/injection, schedule: Q01DX006 (iv), vehicle: saline): 127 % of control
T/C (dose: 50.0 mg/kg/injection, schedule: Q01DX015 (oral), vehicle: saline): 139 % of control
T/C (dose: 50.0 mg/kg/injection, schedule: Q01DX Z (ip), vehicle: saline): 142 % of control
T/C (dose: 64.0 mg/kg/injection, schedule: Q01DX009 (oral), vehicle: saline): 129 % of control
T/C (dose: 64.0 mg/kg/injection, schedule: Q03HX016 (ip), vehicle: water): 125 % of control
T/C (dose: 64.0 mg/kg/injection, schedule: Q## X024 (ip), vehicle: saline): 146 % of control
T/C (dose: 64.5 mg/kg/injection, schedule: Q01DX Z (ip), vehicle: water): 130 % of control
T/C (dose: 75.0 mg/kg/injection, schedule: Q01DX017 (ip), vehicle: water): 141 % of control
T/C (dose: 75.0 mg/kg/injection, schedule: Q02DX009 (ip), vehicle: water): 126 % of control
T/C (dose: 75.0 mg/kg/injection, schedule: Q#A X034 (ip), vehicle: water): 144 % of control
T/C (dose: 80.0 mg/kg/injection, schedule: Q01DX009 (oral), vehicle: saline): 136 % of control
T/C (dose: 100.0 mg/kg/injection, schedule: Q01DX005 (ip), vehicle: saline): 126 and 129 % of control
T/C (dose: 100.0 mg/kg/injection, schedule: Q01DX006 (iv), vehicle: saline): 134 % of control
T/C (dose: 100.0 mg/kg/injection, schedule: Q01DX015 (oral), vehicle: saline): 146 % of control
T/C (dose: 107.5 mg/kg/injection, schedule: Q01DX Z (ip), vehicle: water): 131 % of control
T/C (dose: 108.0 mg/kg/injection, schedule: Q01DX Z (ip), vehicle: water): 147 % of control
T/C (dose: 128.0 mg/kg/injection, schedule: Q03HX016 (ip), vehicle: water): 132 % of control
T/C (dose: 150.0 mg/kg/injection, schedule: Q01DX005 (ip), vehicle: water): 126 % of control
T/C (dose: 150.0 mg/kg/injection, schedule: Q01DX017 (ip), vehicle: water): 149 % of control
T/C (dose: 150.0 mg/kg/injection, schedule: Q01DX Z (oral), vehicle: saline): 125 % of control
T/C (dose: 150.0 mg/kg/injection, schedule: Q02DX009 (ip), vehicle: water): 132 % of control
T/C (dose: 151.0 mg/kg/injection, schedule: Q01DX Z (ip), vehicle: saline): 148 % of control
T/C (dose: 160.0 mg/kg/injection, schedule: Q01DX009 (oral), vehicle: saline): 137 % of control
T/C (dose: 178.5 mg/kg/injection, schedule: Q01DX Z (ip), vehicle: water): 126 % of control
T/C (dose: 179.5 mg/kg/injection, schedule: Q01DX Z (ip), vehicle: water): 133 % of control
T/C (dose: 200.0 mg/kg/injection, schedule: Q01DX005 (ip), vehicle: saline): 126 and 132 % of control
T/C (dose: 200.0 mg/kg/injection, schedule: Q01DX006 (iv), vehicle: saline): 144 % of control
T/C (dose: 200.0 mg/kg/injection, schedule: Q01DX015 (ip), vehicle: saline): 141 % of control
T/C (dose: 200.0 mg/kg/injection, schedule: Q01DX Z (oral), vehicle: saline): 131 % of control
T/C (dose: 250.0 mg/kg/injection, schedule: Q01DX Z (ip), vehicle: saline): 139 % of control
T/C (dose: 256.0 mg/kg/injection, schedule: Q01DX009 (ip), vehicle: water): 126 % of control
T/C (dose: 256.0 mg/kg/injection, schedule: Q## X003 (oral), vehicle: saline): 126 % of control
T/C (dose: 256.0 mg/kg/injection, schedule: Q## X024 (oral), vehicle: saline): 130 % of control
T/C (dose: 298.5 mg/kg/injection, schedule: Q01DX Z (ip), vehicle: water): 131 % of control [9 of 10 alive]
T/C (dose: 299.5 mg/kg/injection, schedule: Q01DX Z (ip), vehicle: water): 129 % of control
T/C (dose: 300.0 mg/kg/injection, schedule: Q01DX005 (ip), vehicle: water): 141 % of control
T/C (dose: 300.0 mg/kg/injection, schedule: Q02DX009 (ip), vehicle: water): 134 % of control
T/C (dose: 320.0 mg/kg/injection, schedule: Q01DX009 (oral), vehicle: saline): 132 % of control
T/C (dose: 350.0 mg/kg/injection, schedule: Q01DX Z (ip), vehicle: saline): 139 % of control
T/C (dose: 400.0 mg/kg/injection, schedule: Q01DX006 (iv), vehicle: saline): 148 % of control
T/C (dose: 400.0 mg/kg/injection, schedule: Q01DX015 (ip), vehicle: saline): 130 % of control
T/C (dose: 400.0 mg/kg/injection, schedule: Q01DX Z (ip), vehicle: saline): 140 % of control
T/C (dose: 400.0 mg/kg/injection, schedule: Q01DX Z (oral), vehicle: saline): 133 % of control
T/C (dose: 400.0 mg/kg/injection, schedule: Q01DX Z (sc), vehicle: saline): 140 % of control
T/C (dose: 512.0 mg/kg/injection, schedule: Q01DX009 (oral), vehicle: saline): 126 % of control
T/C (dose: 512.0 mg/kg/injection, schedule: Q## X003 (oral), vehicle: saline): 130 % of control
T/C (dose: 512.0 mg/kg/injection, schedule: Q## X008 (ip), vehicle: saline): 145 % of control
T/C (dose: 600.0 mg/kg/injection, schedule: Q01DX005 (ip), vehicle: water): 136 % of control
T/C (dose: 600.0 mg/kg/injection, schedule: Q03DX Z (ip), vehicle: saline): 138 % of control
T/C (dose: 800.0 mg/kg/injection, schedule: Q01DX Z (im), vehicle: saline): 144 % of control
T/C (dose: 800.0 mg/kg/injection, schedule: Q01DX Z (sc), vehicle: saline): 140 % of control
T/C (dose: 1024.0 mg/kg/injection, schedule: Q04DX003 (ip), vehicle: water): 132 % of control
T/C (dose: 1024.0 mg/kg/injection, schedule: Q## X008 (ip), vehicle: saline): 145 % of control
T/C (dose: 1024.0 mg/kg/injection, schedule: Q## X008 (oral), vehicle: saline): 132 % of control
T/C (dose: 1024.0 mg/kg/injection, schedule: Q## X024 (ip), vehicle: saline): 146 % of control
T/C (dose: 2000.0 mg/kg/injection, schedule: Q01DX001 (ip), vehicle: saline): 132 % of control
T/C (dose: 2048.0 mg/kg/injection, schedule: Q04DX003 (ip), vehicle: water): 132 % of control
T/C (dose: 2048.0 mg/kg/injection, schedule: Q## X008 (oral), vehicle: saline): 139 % of control
T/C (dose: 2048.0 mg/kg/injection, schedule: Q## X024 (oral), vehicle: saline): 142 % of control
